The source of these data is patent US20240425587A1.

By UniProt entry, the sequences of proteins in these tests, tags left out. Where a name states a change or a piece, a line headed by the entry shows the natural chain unless it says otherwise.
UniProt Q9UKJ1: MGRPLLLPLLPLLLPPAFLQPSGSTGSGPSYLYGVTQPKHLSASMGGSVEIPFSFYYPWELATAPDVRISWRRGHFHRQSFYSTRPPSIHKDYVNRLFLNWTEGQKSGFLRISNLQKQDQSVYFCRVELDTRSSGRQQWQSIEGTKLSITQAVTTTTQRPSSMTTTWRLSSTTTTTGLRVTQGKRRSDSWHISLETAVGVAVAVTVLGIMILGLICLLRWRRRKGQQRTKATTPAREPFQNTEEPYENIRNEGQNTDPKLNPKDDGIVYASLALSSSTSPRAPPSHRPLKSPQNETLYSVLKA

Where a chain is given by its changes, count along the chain named. No constants are given. Whether binding was seen depends on the method and setting. Some results given as binding are weak or reduced against the parent protein; the word gives no strength.

Assay [1] addresses PILRA Fc (soluble human PILRA) (human) (UniProt Q9UKJ1). The experiment in a line: flow cytometry, graph 'Enhancer on CD3+T Blocking Assay': antibody mixed with PILRA-Fc, then human CD3+ T cells; bound PILRA-Fc detected with AF647 2nd Ab; partner of PILRA-Fc: PILRA ligand on the T cells.
The target in assay [2] is human PILRA on the surface of primary human macrophages or monocytes (human) (UniProt Q9UKJ1). Nature of the assay: flow cytometry competition assay, graph 'Compitition-MFI-DNR1408': macrophages with soluble antibody 30 minutes on ice; competitor: sheep anti-hPILRA APC. Background: In flow cytometry, cells or beads pass a laser one at a time.
Assay [3] has as its target human PILRA, G78 variant, ectopically expressed on 293 cells (human) (UniProt Q9UKJ1). Nature of the assay: screening summary, TCP groups.
Assay [4] concerns the target PILRA Fc (soluble human PILRA) (human) (UniProt Q9UKJ1). The experiment in a line: flow cytometry blocking assay, graph 'V1 Blocking_CD3+T Donor 906': antibody mixed with PILRA-Fc, then human CD3+ T cells; bound PILRA-Fc detected with AF647 2nd Ab; blocked partner: PILRA ligand on the T cells.

B1: E3 (antibody, V domains shown)
VH: QAYLQQSGAELVRSGASVKMSCKASGNTFTYYNLHWIRQTPGQGLEWIGYIFPGNGDAYYNQNFKGKATLTADTSSSTAYMQISSLTFEDSAVYFCARSPHYYGSGFDYWGQGTPLTVSS
VL: DIQMTQSSSYLSVSLGGGVTITCKASDHINNWLAWYQQKPGNAPRLLISGATSLETGVPSRFSGSGSGKDYTLSITSLQTEDVATYYCQQYWSTPWTFGGGTKLEIK
Consider B1, for which the binding result in assay [1] is recorded as “binds”.

B2: E15 (antibody, V domains shown)
VH: QVQLQQSGAELVKPGASVKLSCKASGNTFTIYDINWVRQRPEQGLEWIGWIFPGDGSTKYNGKFKGKATLTTDKSSSTAYMQLSRLTSEDSAVYFCARRAHYYGSSFDYWGQGTTLTVSS
VL: B1 VL with G18R, A43G, T52I, T56I, D70E, T94P
In the case of B2, the binding entry in assay [2] is “binds”.

B3: E1 (antibody, V domains shown)
VH: EVQLVESGGGLVQPGESLKLSCESNEYEFPSHDMSWVRKTPEKRLELVAAINSDGGSTYYPDTMERRFIISRDNTKKTLYLQMSSLRSEDTALYYCARQLMGTGAMDYWGQGTSVTVSS
VL: B1 VL with G18R, W96Y
B3: the binding result in assay [1] is on record as “binds”.

B4: E2 (antibody, V domains shown)
VH: EVQLQESGPSLVKPSQTLSLTCSVTGDSITSGYWNWIRKFPGDKLEYMGYISYTGTTYYNPSLKSRVSITRDTSKNQYYLQLHSVTTEDTATYYCARYPYGNFPFDYWGQGTTLTVSS
VL: SIVMTQTPKFLLVSAGDRVTITCKASQSVRNDVAWYQQRPGQSPKLLIFYASSRYIGAPDRFTGSGYGTDFTFTISTVQAEDLAVYFCQQDYSSPYTFGGGTTLEIK
With B4, the binding result in assay [1] is given as “binds”.

B5: C7 (antibody, V domains shown)
VH: QVQLQQSGAELARPGTSVKLSCKASGYIFTDYAISWVKQRTGQGLQWIGEIYPGSDNAYYNENFKGKATLTADKSSNTAYMELRSLTSEDSAVYFCAKWAGSLFDFWGQGTALTVSS
VL: DIVMTQSQKFMSTSVGDRVSVTCKASRNVGFNVAWYQQNPGQSPKALIYSASYRYSGVPDRFTGSGSGTDFTLTISDVQSEDLAEYFCHQYNSYPYTFGGGTKLEIR
Regarding B5, the binding result in assay [3] was “binds”.

B6: hPA-002 (antibody, V domains shown)
VH: QVTLQESGPGILQPSQTLSLTCSFSGFSLSTFGMGVGWIRQPSGKGLEWLAHIWWDDDKYYNPALKSRLTISKDTSKNQVFLKIASVDTADIATYYCARVEDYGNPFDYWGQGTTL
VL: DIQMNQSPSSLSASLGDTITITCHASQNIHVWLNWYQQKPGNIPKLLIYKASNLHTGVPSRFSGSGSGTGFTVTISSLQPEDIATYYCQQGQSYPLTFGAGTKLELK
For the molecule B6, the binding result in assay [4] is “binds”.

B7: hPA-005 (antibody, V domains shown)
VH: QVILKESGPGILQSSQTLSLTCSFSGFSLSTFGMGVGWIRQPSGKGLESLAHIWWDDDKFYNPALKSRLTISKDTSKSQVFLKIANVDTADIATYYCTRIEDYGSYFAYWGQGTTLTVSS
VL: B6 VL with I2V, T18P, K39R, K45R, V73L, L96Y, A100G, L106I
B7: the binding result in assay [4] is reported as “binds”.

B8: hPA-004 (antibody, V domains shown)
VH: QVTLKESGPGMLQPSQTLSLACSFSGFSLNSFGVAVGWIRQPSGKGLEWLAHIWWDDDKSYNPALKSRLTISKDTSKNQVFLKLANVDTADTATYYCTRIADYGNHFDYWGQGTALTVSS
VL: B6 VL with I29S, N34S, V73L, S77G, S93T, L96F, A100S, L106I
For the molecule B8, in assay [4], the binding entry is given as “binds”.
